Laboratory results reported in PubChem BioAssay AID1259354 (Paczesny and Yang Labs, IUPUI and University of Michigan, 2018).
Several values for one entry are separate records, joined by “and”; a condition that tells them apart may be missing. Identical values can stand only once. In all, about 78,000 compounds went through this assay and about 1,800 (2.3%) were called active. The shares of active, inactive and inconclusive entries below differ from those in the screen. Rule as the data show it: active = inhibition above about 30%; inconclusive = mostly about 10% to 28%; inactive = weaker than that.

Protein sequences, listed by entry. Tags and fused reporters are not part of them. Lines headed by an entry give the natural chain unless they say otherwise; changes in a name come on top.
UniProt Q01638: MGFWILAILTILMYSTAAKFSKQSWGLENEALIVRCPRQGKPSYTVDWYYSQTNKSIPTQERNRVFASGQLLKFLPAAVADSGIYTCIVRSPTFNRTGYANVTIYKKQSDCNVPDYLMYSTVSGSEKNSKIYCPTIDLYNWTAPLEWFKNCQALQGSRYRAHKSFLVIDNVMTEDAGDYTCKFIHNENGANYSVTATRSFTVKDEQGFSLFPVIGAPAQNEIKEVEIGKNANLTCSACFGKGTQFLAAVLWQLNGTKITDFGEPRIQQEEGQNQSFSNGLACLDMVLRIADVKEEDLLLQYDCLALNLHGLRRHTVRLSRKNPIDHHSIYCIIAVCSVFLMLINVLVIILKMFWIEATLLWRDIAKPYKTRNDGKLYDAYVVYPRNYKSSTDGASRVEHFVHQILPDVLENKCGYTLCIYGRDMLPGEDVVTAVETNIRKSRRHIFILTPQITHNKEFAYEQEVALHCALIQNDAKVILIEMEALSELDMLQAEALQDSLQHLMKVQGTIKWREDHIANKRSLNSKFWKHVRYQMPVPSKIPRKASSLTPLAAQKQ

What follows are molecules tested against Interleukin-1 receptor-like 1 (Homo sapiens) (UniProt Q01638) (assay: blocks human ST2 binding to IL-33, primary screen, biochemical, AlphaLISA (AID 1259354)). Conditions: AlphaLISA ST2-Fc/biotin-IL-33 interaction, 1 h; at 17 µM, stronger effect = higher value.

Compound	inhibition
COc1cccc(CN2CCCC(NCc3cccn3-c3ncccn3)C2)c1 (centres undefined)	inconclusive: 14%
COCCN1CCCC(O)(CNC2CCN(c3ccccc3F)CC2)C1=O (centres undefined)	inactive
O=c1ccc(-c2ccc(OC(F)(F)F)cc2)c2n1C[C@H]1C[C@@H]2CN(S(=O)(=O)c2cccs2)C1	inactive
C=CCS(=O)CC(N)C(=O)O (centres undefined)	inconclusive: 11%
CCC(=O)N1CCc2cc(Br)cc(S(=O)(=O)NC(C)C)c21	inactive
COc1ccc2oc(-c3ccccc3)c(C(N)=O)c2c1	inconclusive: 12%
Cc1ccc(NS(=O)(=O)c2cc(Br)cc3c2N(C(=O)C2CC2)CC3)cc1	inactive
N=c1c2c(-c3ccccc3)c(-c3ccccc3)n(Cc3ccco3)c2ncn1Cc1ccco1	active: 31%
O=[N+]([O-])c1nn(-c2ccccc2)[n+]([O-])c1N1CCN(c2ccco2)CC1	inactive
CCOC(=O)N1CCN(C2CCCN(C(=O)c3ccc(OC)c(O)c3)C2)CC1 (centres undefined)	inconclusive: 19%
O=C(NC1CCCCC1)N1C[C@@H]2C[C@H](C1)c1c(NS(=O)(=O)c3cccc(F)c3)ccc(=O)n1C2	inconclusive: 10%
CCCCC1(C)OC(=O)C(=Cc2ccc(N(CC)CC)cc2)C(=O)O1 (centres undefined)	active: 33%
CC1CCN(CC(=O)N2CCCc3c2c(=O)oc2ccc(O)cc32)CC1	inconclusive: 19%
CC(C)Cc1cc(C(=O)Nc2cc(Br)ccc2O)no1	inconclusive: 18%
Cc1ccc(N=Cc2nc(-c3ccccc3)oc2O)c(C)c1	inconclusive: 16%
CCC/C=C/c1ccc(C(=O)NCC)cn1	inactive
CCC(C)NC(=O)C1(C)CCC(=O)N1Cc1cc(OC)ccc1OC (centres undefined)	inconclusive: 24%
CC1(C)CC(=O)C2=C(C1)N1C(=C(C#N)C2c2cccnc2)NC(=O)c2c1sc1c2CCCC1 (centres undefined)	inconclusive: 14% and inconclusive: 12%
O=C(CSCc1ccccc1Cl)N1CCN(c2cnccn2)CC1	inconclusive: 13%
Cc1c(C(=O)N2CCCC(N3CCc4ccccc4C3)C2)cnc2ccnn12 (centres undefined)	inactive
O=C(NCCN1CCCC(c2ccccc2)C1)C1CCOCC1 (centres undefined)	inconclusive: 15%
C[C@H]1[C@@H]2[C@@H](O)[C@H]([C@H](C)C(=O)N3CCOCC3)CC[C@@]2(C)CC[C@@H]1NC(=O)c1cncnc1	inactive
O=C(NCCN1CCCC1)c1cc(=O)[nH]c2ccc(S(=O)(=O)N3CCCC3)cc12	inactive
CCNc1nc2ccccn2c(=O)c1/C=C1\SC(=O)N(CC)C1=O	active: 30%

Compound	inhibition
CN1C[C@@H]2CC[C@H](CC1=O)N2C(=O)c1ccnc(-n2cnnc2)c1	inactive
NC(=S)NCCCC(N)C(=O)O (centres undefined)	inconclusive: 14%
O=C(CSc1cn(CCNC(=O)c2ccccc2F)c2ccccc12)NC1CCCCC1	inconclusive: 11%
CS(=O)(=O)c1nc(-c2cccs2)cc(C(F)(F)F)n1	inconclusive: 22%
CCCCCN=Cc1sc2ccc(OCC)cc2c1O	active: 33%
Cc1[nH]c2ccc(CN3C(=O)c4ccccc4C3=O)cc2c1C	inconclusive: 25%
CC(C)c1ccc(NS(=O)(=O)c2ccc3[nH]cc(C(=O)NCc4cccnc4)c(=O)c3c2)cc1	inactive
CCCCSc1nc2c(c(=O)n1-c1ccc(C)cc1)SCC2	inconclusive: 19%
Cc1cc(C)nc(N2CCN(c3ncnc4c3cnn4-c3ccccc3)CC2)n1	inactive
CC(C)(C)c1[nH]nc2c1[C@@H](c1ccccc1[N+](=O)[O-])C(C#N)=C(N)O2	inconclusive: 15%
CSC1=C(C#N)C(c2ccccc2)C(C(C)=O)=C(C)N1 (centres undefined)	inconclusive: 11%
Cc1c(C(=O)NCCOC(C)C)sc2ncnc(N3CCCCCCC3)c12	inactive
Cc1cccc(N=c2oc3ccc(Br)cc3cc2C(N)=O)c1	inactive
CN(C)c1nc(Cl)c(CN(CC2CCN(C3CCCC3)CC2)CC2CCCO2)s1 (centres undefined)	inconclusive: 12%
COc1ccc(OC)c(/C=C2\C(=O)N(c3cccc(Cl)c3)N=C2C)c1	inconclusive: 18%
COC(=O)C1C(=O)C2=C(CC1C)NC(C)=C(C(=O)OC1CCCC1)C2c1ccc2c(c1)OCO2 (centres undefined)	inactive
Cc1ccccc1OCCOCCN1CCCC1	inconclusive: 15%
NC(=O)OCC(COC(N)=O)c1ccccc1	inconclusive: 14%
COc1ccccc1C1SCCN1S(=O)(=O)c1ccc(Cl)cc1 (centres undefined)	inconclusive: 11%
COc1cc2occ(-c3ccc(OC4OC(COC5OC(CO)C(O)C(O)C5O)C(O)C(O)C4O)c(O)c3)c(=O)c2c(OC)c1O (centres undefined)	inconclusive: 10%
O=C(Cn1nc(-c2ccccc2)ccc1=O)NC1CC1	inconclusive: 11%
COc1cccc(C(=O)Nc2cccc(N3CCCS3(=O)=O)c2)c1OC	inconclusive: 19%
CC(=O)Nc1nonc1N1C(=N)S/C(=C\c2ccc(-c3cccc(F)c3)o2)C1=O	inactive
CCn1c(C2CCCN(Cc3cn(C)nc3-c3ccccc3)C2)n[nH]c1=O (centres undefined)	inconclusive: 10%

Compound	inhibition
NS(=O)(=O)c1ccc2c(c1)C1C=CCC1C(C(=O)O)N2 (centres undefined)	inconclusive: 27%
O=C(NCc1cc(-c2ccc(F)cc2)no1)C1CCCCn2nnnc21 (centres undefined)	inconclusive: 17%
Cc1cc(C2CCC2)nc(N2CCC3(CCN(C)CC3)C2)n1	inconclusive: 18%
COCc1nc2c([nH]1)c(=O)n(C)c(=O)n2CC(C)C	inconclusive: 18%
CC(C)(C)C1CCc2onc(C(=O)Nc3ccc(Br)cc3)c2C1 (centres undefined)	inactive
Cc1cc(N(C)C)nc(Nc2ccc(NC(=O)CC(C)C)cc2)n1	inconclusive: 19%
Cc1ccccc1NC(=O)CC(=O)NCCC(=O)Nc1ccccc1F	inconclusive: 10%
O=C1C(=Cc2ccc(Br)o2)C(=O)c2ccccc21	active: 52%
COc1ccc2nc(-n3c(C)ccc3C)sc2c1	inconclusive: 12%
CCOc1cc(C(=O)Nc2cc(-c3nc4ncccc4o3)ccc2C)cc(OCC)c1OCC	active: 37%
Ic1cccc(-c2nc(-c3ccncc3)no2)c1	inconclusive: 27%
COc1ccc(/C=C/c2ccccc2)cn1	inconclusive: 25%
COCC(=O)Nc1cc(C(=O)N(C)C2CCCCC2)c2c(c1)ncn2Cc1ccc(F)cc1	inactive
Cc1sc2nc(SCc3ccc([N+](=O)[O-])cc3)[nH]c(=O)c2c1C	inconclusive: 13%
O=c1c2cc(O)ccc2oc2ccc(O)cc12	inconclusive: 10%
COc1cc(NC(=O)c2ccccc2)c(OC)cc1NC(=O)CCc1ccccc1	inconclusive: 25%
COc1cc(C(=O)NCCc2ccccc2)cc(OC)c1OC	inactive
O=C(O[C@@H]1O[C@@H]2COC(=O)c3cc(O)c(O)c(O)c3-c3c(cc(O)c(O)c3O)C(=O)O[C@H]([C@H]1O)[C@@H]2O)c1cc(O)c(O)c(O)c1	inactive
O=C(Cn1cnc2c(oc3ccccc32)c1=O)Nc1ccccc1	inactive
COc1ccc(-n2ccnc2CN2CCC(NS(C)(=O)=O)CC2)cc1	inconclusive: 13%
O=C(c1ccc([N+](=O)[O-])cc1)N(c1ccccn1)c1ccccn1	inactive
Nc1c(C(=O)NCc2ccccc2)nnn1Cc1ccc(F)cc1Cl	inactive
CN1CCc2c(sc(NC(=O)C(C)(C)C)c2-c2nc3ccccc3s2)C1	inconclusive: 13%
COc1nc(Nc2ccccc2)nc(OCC(F)(F)F)n1	inconclusive: 17%

Compound	inhibition
CCOc1ccc(N2C(=O)/C(=C\c3ccccc3OC)N=C2c2ccc(OC)c(OC)c2)cc1	active: 39%
O=C(COc1ccc(Cl)cc1)Nc1cccc(C(F)(F)F)c1	inactive
O=c1[nH]ncc(N2CCCC2)c1-c1ccc2c(c1)OCO2	inconclusive: 16%
O=C(CSc1nc2c([nH]c3ccccc32)c(=O)n1-c1cccc(Cl)c1)Nc1nccs1	inconclusive: 23%
Cn1c(=O)c2c(nc(NCCCO)n2Cc2ccccc2Br)n(C)c1=O	inactive
O=C(CN1CCN(Cc2ccccc2F)S1(=O)=O)Nc1ccc2c(c1)OCO2	inactive
COC(=O)c1c(C)oc2ccc(OCC(=O)OCc3ccccc3)cc12	inconclusive: 14%
N#CC1=C(N)SC(N)=C(C#N)C1c1cccc(F)c1	inconclusive: 21%
O=C(NC1CCCCC1)C1C2C=CC3(CN(Cc4cccs4)C(=O)C13)O2 (centres undefined)	inactive
O=C(NC[C@H]1O[C@@H](CC(=O)N2CCN(c3ccccc3)CC2)[C@H](O)[C@@H]1O)NC1CCCCC1	inconclusive: 19%
CC(=O)N1CCc2nc(C)nc(NCCSc3ccccn3)c2CC1	inactive
COC(=O)Cc1nc(N2CCN(Cc3ccccc3)CC2)c2c(C)c(C)sc2n1	inconclusive: 14%
CCCC1COCCN1C(=O)c1cc(=O)c2ccccc2o1 (centres undefined)	active: 40%
O=C1CCCC2=C1C(c1cc(Br)ccc1O)C1=C(N2)c2ccccc2C1=O (centres undefined)	inconclusive: 16%
Cc1cc(C)n(C2CCN(Cc3cnc4c(-c5ccccc5)cnn4c3)C2)n1 (centres undefined)	inconclusive: 14%
COC(=O)c1c(NC(C)=O)c2cc(NC3CCCC3)cnc2n1C	inconclusive: 17%
O=C(NCc1cccnc1N1CCc2ccccc2C1)c1cnn2cccnc12	inconclusive: 17%
Cc1ccc(NC(=O)c2sc3nc4c(cc3c2N)CCCCC4)cc1	inconclusive: 15%
Cc1ccccc1NC(=O)CC(=O)N(Cc1ccccn1)C[C@@H]1CCC(=O)N1	inconclusive: 25%
N#C/C(=C/C=C/c1ccccc1)c1nc(-c2ccc(F)cc2)cs1	active: 40%
O=C(Nc1ccc(Br)cc1)c1cc(-c2ccco2)on1	inconclusive: 10%
O=C(O)c1cccc(N=Cc2cc(Br)cc(Cl)c2O)c1	inconclusive: 15%
